{
  "source": "patent US20140128349A1",
  "about": "(Indiana University School of Medicine, priority 2012, published 2014)",
  "experiment": "EDL muscle specific force in mice with PC-3 prostate cancer bone metastases",
  "format": "in vivo",
  "conditions": "hypogonadal mice with PC-3 prostate cancer metastatic to bone",
  "experimental": "In embodiments B and C are shown decreased skeletal muscle cross-sectional area in tumor-bearing mice determined by Micro-CT as described herein. In embodiments D and E are shown decreased body weight (D) and decreased Grip strength (E) in PC-3 tumor bearing mice. […] In embodiment J is shown that RyR1 is oxidized and there is decreased calstabin1 in the RyR1 complex from, skeletal muscle (EDL) from mice with metastatic prostate cancer. RyR1 was immunoprecipitated from 250 μg of EDL homogenate using an anti-RyR antibody (4 μg 5029 Ab), and the immunoprecipitates were separated on SDS-PAGE gels (6% for RyR. 15% for Calstabin). All immunoblots were developed and quantified with the Odyssey system (LI-COR, Inc., Lincoln, Nebr.) using IR labeled anti-mouse and anti-Rabbit IgG (1:10,000 dilution) secondary antibodies. Immunoblots developed using anti-RyR (clone 34C, 1:5,000), anti-Cys-NO (1:1000, Sigma, St. Louis, Mo.), anti-DNP (to determine RyR1 oxidation. 1:250), and anticalstabin (1:2500). […] Quantification of immunoblots showing the relative nitrotyrosine/SERCA for each group of EDLs tested. *p<0.01 compared to non-cancer controls as analyzed by ANOVA. […]\nS107 is administered in the drinking water at a dose of 50 mg/kg/d, water consumption is monitored and plasma drug levels determined. […]",
  "note": "At least one compound was matched to its structure with a doubt left.",
  "data": [
    {"smiles": "O=P(O)(O)C(O)(Cn1ccnc1)P(=O)(O)O", "note": "[zoledronic acid]", "values": [
      {"measurement": "muscle (EDL) specific force production", "result": "increased"}
    ]}
  ]
}
